Values from PubChem BioAssay AID652243 (Drosophila RNAi Screening Center, 2013).
The deposit covers about 24,000 reagents; below is a random part of those that have a named target and a result. Of all reagents, 246 (1%) were called active. 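Plates not normalised; calls are printed but the firefly/Renilla ratio behind them is not deposited; fold cut for lowering reported inconsistently.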 The raw values are shown without normalisation. No sequences are given here. The record does not give: the amount of reagent.

Aim: 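Knock-downs that decrease or increase androgen receptor reporter signal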 (primary screen)
System: Drosophila S2R+ cells
Knock-down reagent: long dsRNA against Drosophila genes
Time to read-out: 72 h (48 h, then 24 h hormone)
Challenge: synthetic androgen R1881 at 10 nM for 24 h
Measurement: 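Firefly light from an androgen-responsive reporter and Renilla control light per well, raw and unnormalised, for each of two replicates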
Direction: firefly reporter light: higher = more light from androgen-responsive reporter; Renilla control light: higher = more constitutive control signal (cell number, transfection)
Active means: 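Hit when the log firefly-to-Renilla ratio dropped or increased by a fixed fold versus the mean of GFP or LacZ controls across duplicate plates; lowering cut given as 1.5 and as 3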
Meaning of the calls: active = hit: reporter lowered or raised; inactive = no hit

With Wdr37 (WD repeat domain 37) [DRSC14500], how do the results read?
firefly reporter light, replicate 1: 72600; firefly reporter light, replicate 2: 57242; Renilla control light, replicate 1: 6.33e5; Renilla control light, replicate 2: 5.90e5; activity call: inactive

For CG11069 [DRSC14289], what was measured?
firefly reporter light, replicate 1: 73194; firefly reporter light, replicate 2: 64737; Renilla control light, replicate 1: 4.64e5; Renilla control light, replicate 2: 6.08e5; activity call: inactive

With flip (flippy) [DRSC12326], what does the deposit list?
firefly reporter light, replicate 1: 1.17e5; firefly reporter light, replicate 2: 96339; Renilla control light, replicate 1: 3.02e6; Renilla control light, replicate 2: 2.38e6; activity call: inactive

With CG15353 [DRSC00383], what was measured?
firefly reporter light, replicate 1: 1.08e5; firefly reporter light, replicate 2: 1.17e5; Renilla control light, replicate 1: 6.77e5; Renilla control light, replicate 2: 5.77e5; activity call: inactive

For CG15353 [DRSC24727], what was measured?
firefly reporter light, replicate 1: 7.17e5; firefly reporter light, replicate 2: 4.76e5; Renilla control light, replicate 1: 8.41e5; Renilla control light, replicate 2: 8.74e5; activity call: inactive

With CG14331 [DRSC14810], how do the results read?
firefly reporter light, replicate 1: 1.92e5; firefly reporter light, replicate 2: 2.04e5; Renilla control light, replicate 1: 1.83e6; Renilla control light, replicate 2: 3.05e6; activity call: inactive

How did the screen score hoka [DRSC08313]?
firefly reporter light, replicate 1: 1.34e5; firefly reporter light, replicate 2: 1.44e5; Renilla control light, replicate 1: 1.33e6; Renilla control light, replicate 2: 2.03e6; activity call: inactive

For CG17065 [DRSC20544], what does the deposit list?
firefly reporter light, replicate 1: 2.18e5; firefly reporter light, replicate 2: 1.09e5; Renilla control light, replicate 1: 8.23e5; Renilla control light, replicate 2: 3.31e5; activity call: inactive

What did the screen give for CG17065 [DRSC26822]?
firefly reporter light, replicate 1: 3.52e5; firefly reporter light, replicate 2: 3.95e5; Renilla control light, replicate 1: 3.69e5; Renilla control light, replicate 2: 3.24e5; activity call: inactive

What did the screen give for Fcp3C (Follicle cell protein 3C) [DRSC18665]?
firefly reporter light, replicate 1: 2.65e5; firefly reporter light, replicate 2: 2.83e5; Renilla control light, replicate 1: 3.19e6; Renilla control light, replicate 2: 2.91e6; activity call: inactive

For pira (pirate) [DRSC19494], how do the results read?
firefly reporter light, replicate 1: 5.30e5; firefly reporter light, replicate 2: 4.74e5; Renilla control light, replicate 1: 3.85e6; Renilla control light, replicate 2: 3.89e6; activity call: inactive

What did the screen give for dgt6 (dim gamma-tubulin 6) [DRSC14424]?
firefly reporter light, replicate 1: 35862; firefly reporter light, replicate 2: 51265; Renilla control light, replicate 1: 4.46e5; Renilla control light, replicate 2: 4.55e5; activity call: inactive
